Reference: PubChem BioAssay AID504774 (Drosophila RNAi Screening Center, 2011)
In all, the deposit lists about 23,000 reagents; below is a random part of those that have a named target and a result. 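Values are quantile-normalised luminescence on an arbitrary scale; higher means more cells surviving MMS.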 Further read-outs or replicates are left out here.

- Screen: 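Genes required for cells to withstand methyl methanesulphonate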 (primary screen)
- Cells: Drosophila Kc167 cells
- Reagent: long dsRNA against Drosophila genes, about 0.25 µg dsRNA per well
- Time to read-out: about 6 days: 3 days knock-down, then 3 days with or without MMS
- Treatment: methyl methanesulphonate 0.004% (w/v) for 3 days after knock-down
- Measurement: 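Viability in wells given MMS, read as ATP luminescence, normalised by quantiles plate by plate and averaged across replicates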
- Direction: mean viability with MMS and viability with MMS: higher = more surviving cells after MMS

gene,DRSC id,mean viability with MMS,"viability with MMS, replicate 1"
Pif2,DRSC12525,3.62e6,4.08e6
obst-H,DRSC10935,3.50e6,3.81e6
obst-H,DRSC10940,3.47e6,3.80e6
sand,DRSC07245,3.78e6,4.16e6
CCHa1-R,DRSC06456,3.52e6,4.02e6
CCHa1-R,DRSC06715,3.63e6,4.14e6
CG4133,DRSC00639,3.29e6,3.67e6
CG4133,DRSC23122,3.57e6,4.10e6
CG11600,DRSC14332,3.46e6,3.96e6
CG12744,DRSC06164,3.74e6,4.24e6
CG12868,DRSC06207,3.74e6,3.91e6
CG14195,DRSC19550,3.48e6,3.93e6
osi,DRSC02931,3.60e6,3.97e6
CG32225,DRSC09657,3.47e6,3.89e6
CG34188,DRSC05549,3.48e6,4.02e6
CG32374,DRSC10986,3.59e6,3.98e6
prd1,DRSC15227,3.42e6,3.97e6
CG31075,DRSC16016,3.63e6,4.16e6
Dgat2,DRSC06803,3.76e6,4.32e6
Or67d,DRSC10158,3.37e6,3.82e6
CG31272,DRSC16058,3.62e6,4.04e6
caup,DRSC11334,3.05e6,3.47e6
caup,DRSC23050,3.54e6,4.03e6
CG7115,DRSC02000,3.56e6,4.06e6
CG6686,DRSC02979,3.16e6,3.43e6
Raf,DRSC18821,3.35e6,3.82e6
Raf,DRSC23311,3.71e6,4.11e6
CG31760,DRSC02590,3.61e6,4.13e6

Reprinted from the listing (4 entries):
gene,DRSC id,mean viability with MMS,"viability with MMS, replicate 1"
CG14195,DRSC19550,3.48e6,3.93e6
osi,DRSC02931,3.60e6,3.97e6
CG32225,DRSC09657,3.47e6,3.89e6
CG34188,DRSC05549,3.48e6,4.02e6
